# Assay results published in PubChem BioAssay (EPA / NIEHS).
# Sequences of proteins named here, by UniProt entry; tags and fusion partners are left off.
# UniProt P04637, whole entry, looked up: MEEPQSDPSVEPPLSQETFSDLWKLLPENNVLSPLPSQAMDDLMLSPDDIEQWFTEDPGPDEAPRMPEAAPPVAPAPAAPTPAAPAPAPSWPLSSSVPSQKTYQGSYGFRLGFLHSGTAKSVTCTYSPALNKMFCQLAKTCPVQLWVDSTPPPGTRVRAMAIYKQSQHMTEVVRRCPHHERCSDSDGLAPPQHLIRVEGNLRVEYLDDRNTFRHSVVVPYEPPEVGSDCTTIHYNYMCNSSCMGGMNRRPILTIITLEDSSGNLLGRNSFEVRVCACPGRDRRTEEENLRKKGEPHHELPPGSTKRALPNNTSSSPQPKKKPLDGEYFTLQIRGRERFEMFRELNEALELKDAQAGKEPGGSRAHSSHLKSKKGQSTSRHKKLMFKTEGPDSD
# Values joined by “and” are separate entries in the source; they are usually repeats but may differ in a detail not shown here. Equal values may be shown once. The inconclusive results got no clear call from the source; some entries with a clear call stand among them for comparison. Where the call is inconclusive, the potency comes from a doubtful curve fit. Active and inactive are the calls of the source. Rule for the calls: active = hit-call score of the fitted dose curve at least 0.9, where 1 is the maximum; inconclusive = response in the unintended direction; inactive = score below 0.9.
# How the values were obtained:
# [1] = TOX21_p53_BLA_p3_viability: Viability Assessment in the Tox21 HCT-116 p53 Agonism Beta-lactamase Assay, Phase 3 (AID 2283593);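 note: cells exposed to compound for 16 h before reading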
# Method in brief: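 HCT-116 cells (4000/well) rested 5 h at 37C, then got DMSO compounds by pin tool (217-fold dilution) for 16 h at 37C, 5% CO2. After the bla read, CellTiter-Glo was added and luminescence read at 30 min, room temperature.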
# [2] = target: Cellular tumor antigen p53 (Homo sapiens) (UniProt P04637); assay: TOX21_p53_BLA_p3_ratio: Tox21 HCT-116 p53 Agonism Beta-lactamase Assay, Ratio, Phase 3 (AID 2283596)
# Method in brief: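 HCT116 p53-bla cells (4000/well) given compound in DMSO (217-fold dilution) after 5 h, incubated 16 h at 37C. CCF4-AM substrate 2 h at room temperature; 460/530 nm emission ratio, gain fitted against DMSO.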
# [3] = TOX21_p53_BLA_p4_viability: Viability Assessment in the Tox21 HCT-116 p53 Agonism Beta-lactamase Assay, Phase 4 (AID 2283597);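 note: hits lower the luminescence signal meaning cytotoxicity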
# Method in brief: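 HCT116 p53-bla cells (4000/well) rested 5 h at 37C, then received compounds in DMSO (217-fold dilution) for 16 h at 37C, 5% CO2. CellTiter-Glo was added after the CCF4-AM read, and luminescence was read after 30 min at room temperature.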
# [4] = TOX21_p53_BLA_p5_viability: Viability Assessment in the Tox21 HCT-116 p53 Agonism Beta-lactamase Assay, Phase 5 (AID 2283600)
# Method in brief: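 Cells were plated at 4000/well, rested 5 h at 37C, then given compounds in DMSO (217-fold dilution) for 16 h at 37C, 5% CO2. Following the CCF4-AM beta-lactamase read, CellTiter-Glo was added and luminescence was read after 30 min at room temperature.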
# [5] = target: Cellular tumor antigen p53 (Homo sapiens) (UniProt P04637); assay: TOX21_p53_BLA_p4_ratio: Tox21 HCT-116 p53 Agonism Beta-lactamase Assay, Ratio, Phase 4 (AID 2283601)
# Method in brief: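 HCT116 cells carrying an inducible beta-lactamase reporter were plated at 4000 cells/well, rested 5 h, then exposed to compounds in DMSO (217-fold dilution) for 16 h at 37C. CCF4-AM substrate was loaded 2 h at room temperature; 460/530 nm emission ratio scored gain-of-signal versus DMSO.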
# [6] = tested on: SRY-box transcription factor 2 (SOX2) Protein Expression, Deisenroth Lab, SOX2 (gene 6657); assay: CCTE_Deisenroth_DEVTOX-GLR_Endo_SOX2: CCTE's DevTox GLR-Endo Assay Evaluation of SRY-box transcription factor 2 (SOX2) Protein Expression, Deisenroth Lab (AID 2284412)
# Method in brief: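 RUES2-GLR human pluripotent cells were seeded 24 h, then differentiated 48 h with two chemical exposures 24 h apart. Cells were fixed, nuclei stained and imaged by high-content microscopy. Endpoint is %SOX2+ cells over cell count, minus 0.2% DMSO control; 10-point series 1 nM–200 uM.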
# [7] = target: Cellular tumor antigen p53 (Homo sapiens) (UniProt P04637); assay: TOX21_p53_BLA_p5_ratio: Tox21 HCT-116 p53 Agonism Beta-lactamase Assay, Ratio, Phase 5 (AID 2283599)
# Method in brief: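 HCT-116 cells carrying a p53-inducible beta-lactamase reporter were seeded at 4000 cells/well and dosed after 5 h with compound in DMSO (217-fold dilution). After 16 h at 37C, CCF4-AM substrate was added for 2 h, and the 460/530 nm emission ratio was scored as gain-of-signal versus DMSO.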
smiles,measurement,setting,value
CC1(C)CCC(NC(=O)[C@@H](N)CCC(=O)O)CC1,outcome,[1],inactive
same,AC50,[2],inconclusive: 23 µM
same,AC50,[3],inconclusive: 23 µM
same,AC50,[4],inconclusive: 23 µM
same,outcome,[5],inactive
Cc1cc(Nc2ccc(O)cc2)ccc1N,AC50,[1],active: 46.7 µM
same,AC50,[2],active: 41.2 µM
same,outcome,[3],inactive
same,AC50,[4],inconclusive: 45.9 µM
CC(=O)c1cc(C)oc1C,AC50,[1],inconclusive: 47.5 µM
same,AC50,[2],inconclusive: 47.5 µM
same,outcome,[3],inactive
same,outcome,[5],inactive
O=c1[nH]c(=O)n([C@H]2C[C@H](O)[C@@H](CO)O2)cc1Br,AC50,[1],inconclusive: 87.4 µM and inconclusive: 23 µM
same,AC50,[2],inconclusive: 46.7 µM
same,AC50,[4],inconclusive: 46.7 µM
same,AC50,[6],inconclusive: 0.236 µM
CC(C)CCCCCCN,outcome,[1],inactive
same,AC50,[2],inconclusive: 69.5 µM
same,AC50,[7],inconclusive: 86.8 µM
same,AC50,[5],inconclusive: 87 µM
C/C=C/C=C/CO,AC50,[1],inconclusive: 0.00112 µM
same,AC50,[3],inconclusive: 46.1 µM
OC[C@H](Cc1cccc(O)c1)[C@H](CO)Cc1cccc(O)c1,outcome,[1],inactive
same,AC50,[2],inconclusive: 47 µM
same,AC50,[7],inconclusive: 47 µM
same,AC50,[5],inconclusive: 78.6 µM
c1ccc(CCNc2nc(-c3ccccc3)cs2)cc1,AC50,[1],inconclusive: 0.000904 µM
same,AC50,[2],inconclusive: 23 µM
same,outcome,[7],inactive
same,AC50,[5],inconclusive: 9.34 µM
CC(=O)O[C@H]1C[C@@]2(C)[C@@H](C[C@@H](O)[C@H]3[C@@]4(C)CC[C@@H](O)[C@@H](C)[C@@H]4CC[C@@]32C)/C1=C(\CCC=C(C)C)C(=O)O,AC50,[1],inconclusive: 23 µM
same,outcome,[2],inactive
same,AC50,[5],inconclusive: 23 µM
O=Cc1cccc(Br)c1,AC50,[1],inconclusive: 47.1 µM
same,outcome,[3],inactive
c1cnc(N2CCN(Cc3ccc4c(c3)OCO4)CC2)nc1,AC50,[1],inconclusive: 23 µM
same,AC50,[2],inconclusive: 23 µM
same,AC50,[7],inconclusive: 23 µM
same,AC50,[4],inconclusive: 23 µM
same,AC50,[5],inconclusive: 23 µM
CCOC(=O)[C@H](CCc1ccccc1)N[C@@H](C)C(=O)N1CCC[C@H]1C(=O)O,outcome,[1],inactive
same,AC50,[2],inconclusive: 23 µM
same,outcome,[4],inactive
same,AC50,[5],inconclusive: 23 µM

# In a second layout: entries from further up.
smiles	measurement	setting	value
Cc1cc(Nc2ccc(O)cc2)ccc1N	AC50	[1]	active: 46.7 µM
c1cnc(N2CCN(Cc3ccc4c(c3)OCO4)CC2)nc1	AC50	[2]	inconclusive: 23 µM
